From article PMC5572923
These are yes or no findings as the source states them, for the method shown. In cells and extracts the contact can be indirect. These calls come from enrichment with a bait or labelling near it, and not all partners need be listed. Sequences can lack the tags named with a protein.

Target: T1, SFB-SGT1 (triple-tagged SGT1, wild type), in HEK293T (human) (UniProt Q9Y2Z0)
T1 sequence: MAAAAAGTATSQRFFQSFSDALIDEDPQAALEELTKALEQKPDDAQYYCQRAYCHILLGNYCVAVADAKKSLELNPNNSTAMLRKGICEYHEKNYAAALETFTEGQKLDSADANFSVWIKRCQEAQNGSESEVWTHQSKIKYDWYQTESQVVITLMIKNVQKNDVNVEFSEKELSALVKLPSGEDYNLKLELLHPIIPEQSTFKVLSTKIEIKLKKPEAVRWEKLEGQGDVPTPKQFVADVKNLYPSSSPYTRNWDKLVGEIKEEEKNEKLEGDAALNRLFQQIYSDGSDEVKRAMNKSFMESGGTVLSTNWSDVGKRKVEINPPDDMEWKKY
Assay: affinity purification with mass spectrometry; 293T cells expressing SFB-SGT1; NETN lysate; streptavidin-Sepharose, biotin elution, S-protein-agarose; SDS-PAGE and mass spectrometry

- binding: binds
B1: RNF41 (ring finger protein 41), endogenous in 293T (enzyme, UniProt Q9H4P4 1-317)
chain: MGYDVTRFQGDVDEDLICPICSGVLEEPVQAPHCEHAFCNACITQWFSQQQTCPVDRSVVTVAHLRPVPRIMRNMLSKLQIACDNAVFGCSAVVRLDNLMSHLSDCEHNPKRPVTCEQGCGLEMPKDELPNHNCIKHLRSVVQQQQTRIAELEKTSAEHKHQLAEQKRDIQLLKAYMRAIRSVNPNLQNLEETIEYNEILEWVNSLQPARVTRWGGMISTPDAVLQAVIKRSLVESGCPASIVNELIENAHERSWPQGLATLETRQMNRRYYENYVAKRIPGKQAVVVMACENQHMGDDMVQEPGLVMIFAHGVEEI
